Literature values, collected in patent US20060252731A1, “Methods of treating recurrent aphthous stomatitis” (priority 2005, published 2006).
At least one compound was matched to its structure with a doubt left.

What was measured:
salivary collagenase = settings: RAS patients, mouth rinse; cited from earlier work
aphthous ulcers [1] = settings: RAS patients, mouth rinse; cited from earlier work
aphthous ulcers [2] = settings: applied with cyano-acrylate adhesive; cited from earlier work
aphthous ulcers [3] = settings: continuous systemic treatment, antimicrobial amounts; cited from earlier work

| SMILES | in vivo salivary collagenase levels (salivary collagenase) | discomfort caused by aphthous ulcers (aphthous ulcers [1]) | intensity of ulcer pain (aphthous ulcers [2]) | remission phases of aphthous ulcers (aphthous ulcers [3]) |
| --- | --- | --- | --- | --- |
| CN(C)[C@@H]1C(O)=C(C(N)=O)C(=O)[C@@]2(O)C(O)=C3C(=O)c4c(O)ccc(Cl)c4[C@@](C)(O)[C@H]3C[C@@H]12 [chlortetracycline] | no reduction | alleviated the discomfort | – | – |
| C[C@H]1c2cccc(O)c2C(=O)C2=C(O)[C@]3(O)C(=O)C(C(N)=O)=C(O)[C@@H](N(C)C)[C@@H]3[C@@H](O)[C@@H]21 [doxycycline, 6α-deoxy-5-hydroxytetracycline] | – | – | decrease the intensity of ulcer pain | long remission phases |
